No constants are given. Whether binding was seen depends on the method and setting. In cells and extracts the contact can be indirect. A result given as binding can be weak or reduced; the word gives no strength.

Assay [1] deals with HSP70-HA. Briefly: co-IP; HEK-293T cells transfected with SFB-PDLIM4 constructs and HSP70-HA; lysates incubated overnight at 4 °C with antibody and S-Protein Agarose or Protein A/G resin, washed with TBS, western blotting. A general note: A western blot detects proteins with antibodies after separation by electrophoresis.
Assay [2] deals with HSP70-HA. Briefly: co-IP; MKN45 cells with exogenous SFB-PDLIM4 and HSP70; same procedure as in HEK-293T cells.

B1: SFB-PDLIM4 (80-260AA) (domain or fragment, UniProt P50479 80-260)
chain: VSRPEGRSWPSAPDDSKAQAHRIHIDPEIQDGSPTTSRRPSGTGTGPEDGRPSLGSPYGQPPRFPVPHNGSSEATLPAQMSTLHVSPPPSADPARGLPRSRDCRVDLGSEVYRMLREPAEPVAAEPKQSGSFRYLQGMLEAGEGGDWPGPGGPRNLKPTASKLGAPLSGLQGLPECTRCGH
Consider B1, for which the binding entry in the assay with HSP70-HA [1] is reported as “binds”.

B2: SFB-PDLIM4 (250-330AA) (domain or fragment, UniProt P50479 250-330)
chain: QGLPECTRCGHGIVGTIVKARDKLYHPECFMCSDCGLNLKQRGYFFLDERLYCESHAKARVKPPEGYDVVAVYPNAKVELV
For the molecule B2, the binding entry with HSP70-HA [1] is listed as “binds”.

B3: SFB-PDLIM4 (1-260AA) (domain or fragment, UniProt P50479 1-260)
chain: MPHSVTLRGPSPWGFRLVGGRDFSAPLTISRVHAGSKAALAALCPGDLIQAINGESTELMTHLEAQNRIKGCHDHLTLSVSRPEGRSWPSAPDDSKAQAHRIHIDPEIQDGSPTTSRRPSGTGTGPEDGRPSLGSPYGQPPRFPVPHNGSSEATLPAQMSTLHVSPPPSADPARGLPRSRDCRVDLGSEVYRMLREPAEPVAAEPKQSGSFRYLQGMLEAGEGGDWPGPGGPRNLKPTASKLGAPLSGLQGLPECTRCGH
Regarding B3, the binding result with HSP70-HA [1] is “binds”.

B4: SFB-PDLIM4 (1-88AA) (domain or fragment, UniProt P50479 1-88)
chain: MPHSVTLRGPSPWGFRLVGGRDFSAPLTISRVHAGSKAALAALCPGDLIQAINGESTELMTHLEAQNRIKGCHDHLTLSVSRPEGRSW
Consider B4, for which the binding result in the assay with HSP70-HA [1] is recorded as “no binding”.

B5: SFB-PDLIM4 (80-330AA) (domain or fragment, UniProt P50479 80-330)
chain: VSRPEGRSWPSAPDDSKAQAHRIHIDPEIQDGSPTTSRRPSGTGTGPEDGRPSLGSPYGQPPRFPVPHNGSSEATLPAQMSTLHVSPPPSADPARGLPRSRDCRVDLGSEVYRMLREPAEPVAAEPKQSGSFRYLQGMLEAGEGGDWPGPGGPRNLKPTASKLGAPLSGLQGLPECTRCGHGIVGTIVKARDKLYHPECFMCSDCGLNLKQRGYFFLDERLYCESHAKARVKPPEGYDVVAVYPNAKVELV
Turning to B5, in the assay with HSP70-HA [1], the binding result was “binds”.

B6: SFB-PDLIM4 (330AA) (protein, UniProt P50479 1-330)
chain: MPHSVTLRGPSPWGFRLVGGRDFSAPLTISRVHAGSKAALAALCPGDLIQAINGESTELMTHLEAQNRIKGCHDHLTLSVSRPEGRSWPSAPDDSKAQAHRIHIDPEIQDGSPTTSRRPSGTGTGPEDGRPSLGSPYGQPPRFPVPHNGSSEATLPAQMSTLHVSPPPSADPARGLPRSRDCRVDLGSEVYRMLREPAEPVAAEPKQSGSFRYLQGMLEAGEGGDWPGPGGPRNLKPTASKLGAPLSGLQGLPECTRCGHGIVGTIVKARDKLYHPECFMCSDCGLNLKQRGYFFLDERLYCESHAKARVKPPEGYDVVAVYPNAKVELV
For B6, the binding result with HSP70-HA [2] and with HSP70-HA [1] was “binds” throughout.

The values above are taken from article PMC12514821.
